The subject of the series is E. granulosus-specific IgG antibodies. Briefly: Indirect ELISA (iELISA) for serodiagnosis of cystic echinococcosis in sheep. The conditions noted are these: for Analytical specificity: cross-reaction with C. tenuicollis-positive goat (n=7) and C. cerebralis-positive sheep (n=7) sera. A general note: An ELISA detects its analyte on a solid surface through an enzyme-linked reagent.

Cystatin: the Analytical specificity was 50% (7/14). Moreover, the “Diagnostic sensitivity (DSN)” value (24 positive sheep sera, compared with necropsy) was 79.17% (19/24). Under “48 negative sheep sera, compared with necropsy”, the “Diagnostic specificity (DSP)” value is 77.08% (37/48). Also, the Diagnostic accuracy (72 sheep sera, compared with necropsy) is given as 77.78% (56/72). Where the note is “listed as rEg-cystatin”, this substance came in with an Analytical specificity of 50%.
